PubChem BioAssay AID1224826 – NIAID | 2016
Screen: 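Genes that change LPS-induced Tnf promoter activity in mouse macrophages when knocked down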 (primary screen). System: RAW264.7 G9 macrophages from mouse bearing reporters for p65 (GFP) and the Tnf promoter (mCherry). Reagents: siRNA pool against mouse genes, 100 nM. Duration: 16 h of LPS stimulation, after 2 days of siRNA transfection. Challenge: bacterial lipopolysaccharide (Salmonella minnesota R595), 10 ng/ml. Measurement: 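Nuclear mCherry signal of the Tnf promoter reporter measured by imaging after background removal, scaled to each plate median and turned into robust z-scores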. Direction: Tnf reporter robust z-score: higher = stronger Tnf promoter reporter signal after LPS. Active means: 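Called active when robust z-score is at most -1.3, matching the median of the Tlr4 knock-down control, or over 3; control wells and wells with under 50 cells never active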. Meaning of the calls: active = Tnf reporter clearly lowered or raised; inactive = no clear change in Tnf reporter.
The whole screen tested about 17,000 reagents; this is an unselected part. Of all reagents, about 1,110 (6.6%) are marked active. 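Active means lowered or raised reporter signal; replicate intensities are raw and not normalised per plate.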 Further read-outs or replicates are left out here. No sequences are given here.

gene	Tnf reporter robust z-score	fewer than 50 cells in well	call
Phf21a	1.01	enough cells in well	inactive
Ccer1		fewer than 50 cells per well; well left out of calls	inactive
Gm4736	-0.56	enough cells in well	inactive
Il7r	-0.22	enough cells in well	inactive
Adamts2	1.74	enough cells in well	inactive
Tcstv1a	0.25	enough cells in well	inactive
Stk32a	-0.1	enough cells in well	inactive
Or8b40	3.03	enough cells in well	active
Sorl1	0.89	enough cells in well	inactive
Cldn8	-1.21	enough cells in well	inactive
Eif2s2	-1.43	enough cells in well	active
Foxn2	0.16	enough cells in well	inactive
Alox12b	0.43	enough cells in well	inactive
Trim30a		fewer than 50 cells per well; well left out of calls	inactive

In a second layout: results already given.
gene,Tnf reporter robust z-score,fewer than 50 cells in well,call
Ccer1,,fewer than 50 cells per well; well left out of calls,inactive
Gm4736,-0.56,enough cells in well,inactive

Further reagents follow.
gene	Tnf reporter robust z-score	fewer than 50 cells in well	call
Slc33a2		fewer than 50 cells per well; well left out of calls	inactive
Napa	-0.69	enough cells in well	inactive
Fbxl19	-0.71	enough cells in well	inactive
Ell	0	enough cells in well	inactive
Smpx		fewer than 50 cells per well; well left out of calls	inactive
Sdcbp	2.23	enough cells in well	inactive
Pdcd1	-0.4	enough cells in well	inactive
Pilra	2.83	enough cells in well	inactive
Mettl21e		fewer than 50 cells per well; well left out of calls	inactive
Nap1l2	0.59	enough cells in well	inactive
